Assay results: PubChem BioAssay AID624297 (National Center for Advancing Translational Sciences (NCATS), 2012)
About 6,200 (1.8%) of roughly 340,000 compounds were called active. This list was built around the results that the source calls inconclusive (neither active nor inactive); the mix of calls is not that of the screen. Calls follow the shape of the dose curve; as a rule, active = well fitted activation curve with a large enough effect; inconclusive = small, poorly fitted or top-dose-only effect; inactive = no such curve, though single readings can be large or run the other way. A potency beside an inconclusive call is a rough fit, not a confirmed value.

assay: A quantitative high throughput screen for small molecules that induce DNA re-replication in SW480 colon adenocarcinoma cells.; also: nearly all actives have a fitted effect of over 55% in size; as to re-replication activation: % of control where 0% means no effect; details: Hoechst DNA content imaging, 48 h; re-replication activation: at 46.1 µM (top of the series) unless noted
Summary of the method: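 First, 250 cells per well were seeded. Next, compound or vehicle (23 nL) was pinned in, plates sat 48 hr at 37 C. Finally Hoechst was added for 40 min before fluorescence scanning.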
Potency is read from the fitted curve at half-maximal effect.

Compound | re-replication activation | Potency
CCn1c(NCc2c[nH]c3ccccc23)nc2ccccc21 | inactive: -3.52% [at 9.22 µM] | –
CN(CC(=O)Nc1cc(C(F)(F)F)ccc1-n1cncn1)Cc1ccccc1N1CCOCC1 | – | inconclusive: 0.731 µM [activator, partial curve, poor fit]
COc1ccccc1NC(=O)C1CC(O)CN1C(=O)Oc1ccccc1 (stereo unspecified) | – | inconclusive: 5.01 µM [activator, single point]
O=C(Cc1ccc(Cl)cc1)N1CCOCC1 | inactive: -2.91% | –
CN(C)c1ccc(/C=C/C(=O)c2c(O)c3ccccc3oc2=O)cc1 | – | inconclusive: 0.13 µM [activator, full curve, poor fit]
Cn1nc(C(=O)OCC(=O)c2ccc(Cl)cc2)c2ccccc2c1=O | inactive: -9.99% | –
COc1ccccc1OCC(=O)NNc1c2ccccc2nc2ccccc12 | – | inconclusive: 23.1 µM [activator, partial curve, poor fit]
O=C(O)c1ccc2c(=O)n3c(nc2c1)/C(=C/c1ccccc1Br)CC3 | inactive: -6.86% | –
C[C@H]1[C@@H](OC(=O)CCC(=O)O)OC2OC3(C)CC[C@H]4[C@H](C)CC[C@@H]1[C@@]24OO3 (stereo partly specified) | – | inconclusive: 13.3 µM [activator, full curve, poor fit]
OCC1(Cc2cccc(Cl)c2)CCCN(Cc2cn[nH]c2C2CCCCC2)C1 (stereo unspecified) | – | inconclusive: 1.46 µM [activator, partial curve, poor fit]
Cc1nnc(SCC(=O)Nc2ncc3c(n2)CC(C)(C)CC3=O)s1 | – | inconclusive: 20.6 µM [activator, partial curve, poor fit]
CC1(C)CSC(C)(C)C(=O)N1 | inactive: 0.0194% | –
COc1ccc(C(=O)Nc2ccccc2C(=O)N(Cc2ccco2)C(C(N)=O)C(C)C)cc1 (stereo unspecified) | – | inconclusive: 23.1 µM [activator, partial curve, poor fit]
O=C(CSc1nc2ccccc2[nH]1)Nc1cccc(S(=O)(=O)N2CCOCC2)c1 | – | inconclusive: 20.6 µM [activator, single point]
Cc1ccc(/C=C2\SC(=S)N(CCC(=O)NNC(=O)c3ccccc3O)C2=O)cc1 | – | inconclusive: 13 µM [activator, partial curve]
Cc1[nH]n(-c2cccc([N+](=O)[O-])c2)c(=O)c1-c1ccccc1 | – | inconclusive: 6.51 µM [activator, single point]
CCS(=O)(=O)Nc1cccc(C2=NN(S(=O)(=O)c3ccccc3)C(c3cccs3)C2)c1 (stereo unspecified) | – | inconclusive: 16.4 µM [activator, single point]
CCC(C)c1ccc(NC(=O)C2CCN(c3ncccn3)CC2)cc1 (stereo unspecified) | – | inconclusive: 0.184 µM [activator, full curve, poor fit]
Cc1ccc(-c2cc(C(=O)Nc3cccc(S(=O)(=O)N(C)C)c3)c3ccccc3n2)o1 | – | inconclusive: 10.3 µM [activator, partial curve, poor fit]
COc1cc(Br)cc(C2C3=C(CCCC3=O)N(c3ccc(F)cc3)C3=C2C(=O)CCC3)c1O | – | inconclusive: 29.1 µM [activator, single point]
CCC(CC)c1nnc(NC(=O)Oc2ccccc2)s1 | inactive: -2.76% | –

Compound | re-replication activation | Potency
COc1ccc([C@@H]2CC=C(C(=O)O)[C@H](c3ccc(C(C)(C)C)cc3)N2S(=O)(=O)c2ccc(C)cc2)cc1OC | – | inconclusive: 29.1 µM [activator, single point]
CCN1c2ccccc2-c2nc3ccccc3n2C1c1ccccn1 (stereo unspecified) | inactive: -1.59% | –
Nc1nnc(SCc2cccc(C(F)(F)F)c2)s1 | – | inconclusive: 29.1 µM [activator, partial curve, poor fit]
C[C@@]12C(=O)Nc3cc(F)c(F)cc3C(=O)N1[C@H]1c3ccccc3OC[C@@H]1[C@@H]2c1ccccc1 | – | inconclusive: 16.4 µM [activator, partial curve, poor fit]
O=C(O)c1ccccc1C(=O)c1ccc(Br)s1 | inactive: -1.52% | –
CCC(=O)NC(=S)Nc1ccc(NC(=O)c2ccc([N+](=O)[O-])cc2Cl)cc1 | inactive: -3.94% | –
Cc1ccc(C)c(NC(=S)NC(NC(=O)/C=C/c2ccccc2)C(Cl)(Cl)Cl)c1 (stereo unspecified) | – | inconclusive: 18.4 µM [activator, single point]
CCOc1ccc(-c2nnc3ccc(SCc4ccc(C(=O)OC)o4)nn23)cc1 | inactive: 5.35% | –
CN(C)Cc1c(O)ccc2c(=O)c(-c3ccc(Cl)cc3)coc12 | – | inconclusive: 14.6 µM [activator, single point]
BrC(/C=N/Nc1nc(N2CCOCC2)nc(N2CCOCC2)n1)=C/c1ccccc1 | – | inconclusive: 18.4 µM [activator, single point]
O=C(Cc1ccc(F)cc1)N(c1ccc(F)cc1)C1C=CS(=O)(=O)C1 (stereo unspecified) | – | inconclusive: 29.1 µM [activator, single point]
CCCn1c(SCC(=O)Nc2cccc(C(=O)OC)c2)nnc1-c1cccnc1 | – | inconclusive: 7.31 µM [activator, partial curve, poor fit]
Cc1ccc(N=C2NC(=O)/C(=C\c3cccs3)S2)cc1C | – | inconclusive: 32.6 µM [activator, partial curve, poor fit]
Cc1ccc(-c2ccc(SCC(=O)c3ccccc3)nn2)cc1 | inactive: 1.94% | –
Cc1noc(C)c1S(=O)(=O)N(CC(=O)NCCc1ccccc1)c1ccc(C(C)C)cc1 | inactive: -33.3% | –
CCN(C(=O)COC(=O)c1ccc(C=O)cc1)c1c(N)n(Cc2ccccc2)c(=O)[nH]c1=O | – | inconclusive: 29.1 µM [activator, single point]
COc1ccc(Cl)cc1NC(=S)NCCC(c1ccccc1)c1ccccc1 | – | inconclusive: 29.1 µM [activator, partial curve, poor fit]
O=C(O)c1ccc(N/N=C/C(Br)=C/c2ccccc2)cc1 | – | inconclusive: 29.1 µM [activator, single point]
COc1ccc(/C=N/NC(=O)c2cccnc2)cc1COc1ccc([N+](=O)[O-])cc1 | – | inconclusive: 18.4 µM [activator, single point]
COc1ccc(S(=O)(=O)N(C)c2ccccc2)c2cccnc12 | – | inconclusive: 18.4 µM [activator, single point]

Complete entries, looked up by structure. Order of values: re-replication activation	Potency
COc1ccc([C@@H]2CC=C(C(=O)O)[C@H](c3ccc(C(C)(C)C)cc3)N2S(=O)(=O)c2ccc(C)cc2)cc1OC is listed as –	inconclusive: 29.1 µM [activator, single point]
CN(C)Cc1c(O)ccc2c(=O)c(-c3ccc(Cl)cc3)coc12 is listed as –	inconclusive: 14.6 µM [activator, single point]
Nc1nnc(SCc2cccc(C(F)(F)F)c2)s1 is listed as –	inconclusive: 29.1 µM [activator, partial curve, poor fit]
